Experimental findings from article doi:10.1101/2021.02.24.432555 are described below.

Amino acid sequences for entries named in this document (tags omitted). A change or cut given only in a name is not applied to a line headed by its entry.
UniProt P18850: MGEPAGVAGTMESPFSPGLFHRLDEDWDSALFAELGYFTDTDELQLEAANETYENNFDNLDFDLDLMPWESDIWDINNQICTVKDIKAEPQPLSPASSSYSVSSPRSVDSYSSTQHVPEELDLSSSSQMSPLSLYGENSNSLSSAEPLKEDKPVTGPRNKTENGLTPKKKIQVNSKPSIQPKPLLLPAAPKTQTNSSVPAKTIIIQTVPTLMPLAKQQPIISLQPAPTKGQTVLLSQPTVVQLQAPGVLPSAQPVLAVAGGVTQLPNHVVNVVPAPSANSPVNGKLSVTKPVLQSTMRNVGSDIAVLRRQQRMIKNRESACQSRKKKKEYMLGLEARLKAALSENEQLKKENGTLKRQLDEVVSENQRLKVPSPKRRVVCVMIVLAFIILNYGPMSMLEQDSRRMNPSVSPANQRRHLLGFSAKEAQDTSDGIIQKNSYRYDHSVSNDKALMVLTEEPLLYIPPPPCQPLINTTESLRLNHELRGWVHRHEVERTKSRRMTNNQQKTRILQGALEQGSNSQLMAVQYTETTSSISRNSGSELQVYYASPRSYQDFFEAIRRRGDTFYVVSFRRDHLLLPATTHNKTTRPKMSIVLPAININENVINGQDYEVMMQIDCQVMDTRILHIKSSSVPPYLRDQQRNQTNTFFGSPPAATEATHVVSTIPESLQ
UniProt Q13547: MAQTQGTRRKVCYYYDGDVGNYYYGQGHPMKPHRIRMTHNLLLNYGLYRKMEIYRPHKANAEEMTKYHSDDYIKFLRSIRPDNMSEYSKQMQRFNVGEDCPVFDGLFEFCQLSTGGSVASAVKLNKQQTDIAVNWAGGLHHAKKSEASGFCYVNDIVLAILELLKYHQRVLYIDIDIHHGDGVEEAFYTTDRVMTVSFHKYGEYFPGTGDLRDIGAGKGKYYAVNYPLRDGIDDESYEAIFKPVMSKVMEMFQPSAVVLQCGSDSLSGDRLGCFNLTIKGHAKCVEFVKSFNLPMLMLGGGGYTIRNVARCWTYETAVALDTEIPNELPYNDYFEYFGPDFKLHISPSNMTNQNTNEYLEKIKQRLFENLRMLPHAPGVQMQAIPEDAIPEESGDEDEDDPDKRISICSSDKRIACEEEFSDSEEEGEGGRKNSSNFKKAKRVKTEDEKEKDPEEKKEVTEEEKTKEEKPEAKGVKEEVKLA

This test has as its target ATF6f (human (endogenous in HeLa)) (UniProt P18850). Description: co-IP.

Results are given in words; binding and its absence hold for the method and conditions named. In cells and extracts the contact can be indirect. A result given as binding can be weak or reduced; the word gives no strength.

For HDAC1 (from UniProt Q13547 1-482), the binding result is recorded as “binds”.

As for p97/VCP (from UniProt P55072 1-806), the binding result is reported as “binds”.

B1: ING2 (protein, UniProt Q9H160 1-280)
chain: MLGQQQQQLYSSAALLTGERSRLLTCYVQDYLECVESLPHDMQRNVSVLRELDNKYQETLKEIDDVYEKYKKEDDLNQKKRLQQLLQRALINSQELGDEKIQIVTQMLELVENRARQMELHSQCFQDPAESERASDKAKMDSSQPERSSRRPRRQRTSESRDLCHMANGIEDCDDQPPKEKKSKSAKKKKRSKAKQEREASPVEFAIDPNEPTYCLCNQVSYGEMIGCDNEQCPIEWFHFSCVSLTYKPKGKWYCPKCRGDNEKTMDKSTEKTKKDRRSR
With B1, the binding result was “no binding”.
